According to patent publication US8580812B2, “Heteroaryl amide analogues as P2X7 antagonists” (H. Lundbeck A/S, priority 2007, dated 2013):
Some of these results come from one statement about several compounds together.

Target: T1, P2X7 (Homo sapiens, UniProt Q99572)
T1 construct: host or cells: SH-SY5Y
T1 sequence (Q99572 1-595): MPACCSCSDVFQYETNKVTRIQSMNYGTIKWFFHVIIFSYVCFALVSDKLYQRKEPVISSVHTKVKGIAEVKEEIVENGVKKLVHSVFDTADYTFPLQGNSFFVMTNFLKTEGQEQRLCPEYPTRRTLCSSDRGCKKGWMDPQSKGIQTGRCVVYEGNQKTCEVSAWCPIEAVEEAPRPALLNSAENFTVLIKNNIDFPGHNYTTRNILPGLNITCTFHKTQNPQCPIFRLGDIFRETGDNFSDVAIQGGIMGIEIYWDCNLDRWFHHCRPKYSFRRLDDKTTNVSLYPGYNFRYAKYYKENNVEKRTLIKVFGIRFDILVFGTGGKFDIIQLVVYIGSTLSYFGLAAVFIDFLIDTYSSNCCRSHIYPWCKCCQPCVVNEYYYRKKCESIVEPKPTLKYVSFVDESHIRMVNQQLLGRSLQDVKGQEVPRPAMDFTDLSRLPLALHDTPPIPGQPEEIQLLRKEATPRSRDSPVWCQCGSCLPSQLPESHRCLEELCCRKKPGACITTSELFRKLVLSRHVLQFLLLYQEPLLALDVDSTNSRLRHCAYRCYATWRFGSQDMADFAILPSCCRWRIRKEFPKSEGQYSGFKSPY
Assay: High Throughput P2X7 Calcium Mobilization Assay (Example 4A), antagonist activity
Assay type: cell-based
Settings: determined as described in Example 4A; SH-SY5Y cells, 80 μM BzATP
Protocol: A. High Throughput P2X7 Calcium Mobilization Assay
SH-SY5Y cells, ATCC Number CRL-2266, (American Type Culture Collection, Manassas, Va.) are cultured under DMEM/High medium supplemented with 10% FBS, and 10 mM HEPES (Invitrogen Corp., Carlsbad, Calif.) in 5% CO2 and at 37° C. One day prior to the experiment, cells are plated at a density of 100,000 cells/well in a 96 well black/clear TC plate (Corning® Costar®, Sigma-Aldrich Co., St. Louis, Mo.). At the beginning of the experiment, the culture medium is removed and cells are incubated with 50 μL of 2.3 μM Fluo-4 AM dye (Invitrogen Corp.) in the assay solution (5 mM KCl, 9.6 mM NaH2PO4.H2O, 25 mM HEPES, 280 mM Sucrose, 5 mM Glucose, and 0.5 mM CaCl2; pH is adjusted to 7.4 with NaOH) for an hour at 37° C. After one hour dye incubation, wells are rinsed once with 50 μL assay solution, and are then incubated for an hour at room temperature with 100 μL assay solution containing the test compound. The final concentration of test compound generally ranges from 1 to 2500 nM; for positive control cells, no test compound is added. After the one hour incubation, plates are transferred to a FLIPR^TETRA instrument (Molecular Devices, Sunnyvale, Calif.) for calcium mobilization analysis.
For determination of antagonist activity, 50 μL of P2X7 agonist (2′(3′)-O-(4-benzoyl-benzoyl)adenosine 5′-triphosephate (BzATP; Sigma-Aldrich) in the assay solution is transferred using the FLIPR into the plate, such that the final agonist concentration is 80 μM (about EC50). In negative control cells, 50 μL of assay solution without agonist is added at this stage. The peak fluorescence signal over a 2 minute period is then measured.
First, the average maximum relative fluorescent unit (RFU) response from the negative control wells (no agonist) is subtracted from the maximum response detected for each of the other experimental wells. Second, average maximum RFU response is calculated for the positive control wells (agonist wells). Then, percent inhibition for each compound tested is calculated using the equation: Percent Inhibition=100−100×(Peak Signal in Test Cells/Peak Signal in Control Cells) The % inhibition data is plotted as a function of test compound concentration and test compound IC50 is determined using, for example, KALEIDAGRAPH software (Synergy Software, Reading, Pa.) best fit of the data to the equation: y=m1*(1/(1+(m2/m0)^m3)) where y is the percent inhibition, m0 is […], m1 is the maximum RFU, m2 corresponds to the test compound IC50 (the concentration required to provide a 50% decrease, relative to the response observed in the presence of agonist and without antagonist) and m3 is the Hill coefficient.

IC50, ≤ 2 µM:
N[C@@H]1CCN(C(=O)c2cc3c(C(=O)NCC45CC6CC(CC(C6)C4)C5)cccn3n2)C1 [Compound 2, N-(adamantan-1-ylmethyl)-2-{[(3R)-3-aminopyrrolidin-1-yl]carbonyl}pyrazolo[1,5-a]pyridine-4-carboxamide]
O=C(O)Cc1cc2c(C(=O)NCC34CC5CC(CC(C5)C3)C4)cccn2n1 [Compound 6, {4-[(Adamantan-1-ylmethyl)carbamoyl]pyrazolo[1,5-a]pyridin-2-yl}acetic acid]
N#CCc1cc2c(C(=O)NCC34CC5CC(CC(C5)C3)C4)cccn2n1 [Compound 5, N-(adamantan-1-ylmethyl)-2-(cyanomethyl)pyrazolo[1,5-a]pyridine-4-carboxamide]
N[C@@H]1CCCN(C(=O)Cc2cc3c(C(=O)NCC45CC6CC(CC(C6)C4)C5)cccn3n2)C1 [Compound 7, N-(adamantan-1-ylmethyl)-2-{2-[(3R)-3-aminopiperidin-1-yl]-2-oxoethyl}pyrazolo[1,5-a]pyridine-4-carboxamide]
N#CC=Cc1cc2c(C(=O)NCC34CC5CC(CC(C5)C3)C4)cccn2n1 [Compound 11, 2-(2-Cyano-vinyl)-pyrazolo[1,5-a]pyridine-4-carboxylic acid (adamantan-1-ylmethyl)-amide]
N[C@@H]1CCN(Cc2cc3c(C(=O)NCC45CC6CC(CC(C6)C4)C5)cccn3n2)C1 [Compound 4, N-(adamantan-1-ylmethyl)-2-{[(3R)-3-aminopyrrolidin-1-yl]methyl}pyrazolo[1,5-a]pyridine-4-carboxamide]
N#Cc1cccc(C(=O)c2ccc3c(C(=O)NCC45CC6CC(CC(C6)C4)C5)cccn23)c1 [Compound 14, N-(adamantan-1-ylmethyl)-3-(3-cyanobenzoyl)indolizine-8-carboxamide]
O=C(O)COCc1cc2c(C(=O)NCC34CC5CC(CC(C5)C3)C4)cccn2n1 [Compound 9, {4-[(Adamantan-1-ylmethyl)carbamoyl]pyrazolo[1,5-a]pyridin-2-ylmethoxy}acetic acid]
NC(=O)c1cccc(C(=O)c2ccc3c(C(=O)NCC45CC6CC(CC(C6)C4)C5)cccn23)c1 [Compound 15, N-(Adamantan-1-ylmethyl)-3-(3-carbamoylbenzoyl)indolizine-8-carboxamide]
O=C(NCC12CC3CC(CC(C3)C1)C2)c1cccn2nc(CCc3nnn[nH]3)cc12 [Compound 13, 2-[2-(1H-Tetrazol-5-yl)-ethyl]-pyrazolo[1,5-a]pyridine-4-carboxylic acid (adamantan-1-ylmethyl)-amide]
CCOC(=O)c1cc2c(C(=O)NCC34CC5CC(CC(C5)C3)C4)cccn2n1 [Compound 1, 4-[(Adamantan-1-ylmethyl)carbamoyl]pyrazolo[1,5-a]pyridine-2-carboxylic acid ethyl ester]
N#CCCc1cc2c(C(=O)NCC34CC5CC(CC(C5)C3)C4)cccn2n1 [Compound 12, N-(adamantan-1-ylmethyl)-2-(2-cyanoethyl)pyrazolo[1,5-a]pyridine-4-carboxamide]
CCOC(=O)c1cc2c(NC(=O)CC34CC5CC(CC(C5)C3)C4)cccn2n1 [Compound 10, 4-(2-Adamantan-1-ylacetylamino)pyrazolo[1,5-a]pyridine-2-carboxylic acid ethyl ester]
O=C(NCC12CC3CC(CC(C3)C1)C2)c1cccn2nc(CO)cc12 [Compound 3, N-(adamantan-1-ylmethyl)-2-(hydroxymethyl)pyrazolo[1,5-a]pyridine-4-carboxamide]
CCOC(=O)COCc1cc2c(C(=O)NCC34CC5CC(CC(C5)C3)C4)cccn2n1 [Compound 8, {4-[(Adamantan-1-ylmethyl)carbamoyl]pyrazolo[1,5-a]pyridin-2-ylmethoxy}acetic acid ethyl ester]
